Experimental data from the supplement of paper PMC10849652.
The list shows a part of the results.

Protein sequences, listed by entry. Tags and fused reporters are not part of them. Lines headed by an entry give the natural chain unless they say otherwise; changes in a name come on top.
UniProt Q9H0K6: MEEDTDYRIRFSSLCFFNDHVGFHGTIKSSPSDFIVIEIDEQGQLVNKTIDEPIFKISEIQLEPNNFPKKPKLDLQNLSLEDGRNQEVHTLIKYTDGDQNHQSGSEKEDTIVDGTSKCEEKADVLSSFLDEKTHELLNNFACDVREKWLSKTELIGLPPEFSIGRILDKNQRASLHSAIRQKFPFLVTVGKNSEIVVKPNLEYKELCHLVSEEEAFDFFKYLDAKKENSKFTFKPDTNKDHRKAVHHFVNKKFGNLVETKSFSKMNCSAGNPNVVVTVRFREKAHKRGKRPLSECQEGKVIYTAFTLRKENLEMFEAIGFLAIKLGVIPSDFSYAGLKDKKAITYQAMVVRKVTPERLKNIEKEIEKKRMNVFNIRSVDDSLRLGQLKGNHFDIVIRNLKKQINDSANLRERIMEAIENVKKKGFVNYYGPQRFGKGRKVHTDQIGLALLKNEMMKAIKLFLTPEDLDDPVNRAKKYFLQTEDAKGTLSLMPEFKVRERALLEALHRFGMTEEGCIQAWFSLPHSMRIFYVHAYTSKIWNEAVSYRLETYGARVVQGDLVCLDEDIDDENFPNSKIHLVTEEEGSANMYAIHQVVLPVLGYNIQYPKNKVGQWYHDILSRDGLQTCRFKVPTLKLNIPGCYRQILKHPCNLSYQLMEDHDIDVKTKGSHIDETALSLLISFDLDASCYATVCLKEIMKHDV
UniProt Q9BVG9: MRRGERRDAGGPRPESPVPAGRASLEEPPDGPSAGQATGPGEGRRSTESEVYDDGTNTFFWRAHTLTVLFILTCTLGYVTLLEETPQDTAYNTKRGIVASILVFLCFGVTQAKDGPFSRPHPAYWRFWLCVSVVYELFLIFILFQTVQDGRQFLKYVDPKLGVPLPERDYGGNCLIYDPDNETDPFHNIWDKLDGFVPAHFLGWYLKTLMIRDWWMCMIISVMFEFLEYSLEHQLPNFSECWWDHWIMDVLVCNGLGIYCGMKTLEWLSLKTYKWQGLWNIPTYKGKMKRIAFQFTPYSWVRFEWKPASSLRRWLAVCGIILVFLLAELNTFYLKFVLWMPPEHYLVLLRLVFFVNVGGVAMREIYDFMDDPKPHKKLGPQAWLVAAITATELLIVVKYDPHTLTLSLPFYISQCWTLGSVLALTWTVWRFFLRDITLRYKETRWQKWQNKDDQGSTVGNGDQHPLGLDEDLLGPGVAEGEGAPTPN
UniProt Q93096: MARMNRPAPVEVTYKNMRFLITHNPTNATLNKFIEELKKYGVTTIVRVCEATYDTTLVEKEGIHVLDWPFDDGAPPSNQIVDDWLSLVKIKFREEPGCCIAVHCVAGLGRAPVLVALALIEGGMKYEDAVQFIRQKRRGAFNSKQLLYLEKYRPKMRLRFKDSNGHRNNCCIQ
UniProt P28072: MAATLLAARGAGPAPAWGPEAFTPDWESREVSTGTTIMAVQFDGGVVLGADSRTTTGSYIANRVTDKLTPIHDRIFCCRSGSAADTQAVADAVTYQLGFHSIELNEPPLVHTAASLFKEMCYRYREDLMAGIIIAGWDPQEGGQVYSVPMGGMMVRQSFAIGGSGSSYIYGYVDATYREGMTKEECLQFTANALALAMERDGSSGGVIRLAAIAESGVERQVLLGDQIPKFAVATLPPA
UniProt Q12913: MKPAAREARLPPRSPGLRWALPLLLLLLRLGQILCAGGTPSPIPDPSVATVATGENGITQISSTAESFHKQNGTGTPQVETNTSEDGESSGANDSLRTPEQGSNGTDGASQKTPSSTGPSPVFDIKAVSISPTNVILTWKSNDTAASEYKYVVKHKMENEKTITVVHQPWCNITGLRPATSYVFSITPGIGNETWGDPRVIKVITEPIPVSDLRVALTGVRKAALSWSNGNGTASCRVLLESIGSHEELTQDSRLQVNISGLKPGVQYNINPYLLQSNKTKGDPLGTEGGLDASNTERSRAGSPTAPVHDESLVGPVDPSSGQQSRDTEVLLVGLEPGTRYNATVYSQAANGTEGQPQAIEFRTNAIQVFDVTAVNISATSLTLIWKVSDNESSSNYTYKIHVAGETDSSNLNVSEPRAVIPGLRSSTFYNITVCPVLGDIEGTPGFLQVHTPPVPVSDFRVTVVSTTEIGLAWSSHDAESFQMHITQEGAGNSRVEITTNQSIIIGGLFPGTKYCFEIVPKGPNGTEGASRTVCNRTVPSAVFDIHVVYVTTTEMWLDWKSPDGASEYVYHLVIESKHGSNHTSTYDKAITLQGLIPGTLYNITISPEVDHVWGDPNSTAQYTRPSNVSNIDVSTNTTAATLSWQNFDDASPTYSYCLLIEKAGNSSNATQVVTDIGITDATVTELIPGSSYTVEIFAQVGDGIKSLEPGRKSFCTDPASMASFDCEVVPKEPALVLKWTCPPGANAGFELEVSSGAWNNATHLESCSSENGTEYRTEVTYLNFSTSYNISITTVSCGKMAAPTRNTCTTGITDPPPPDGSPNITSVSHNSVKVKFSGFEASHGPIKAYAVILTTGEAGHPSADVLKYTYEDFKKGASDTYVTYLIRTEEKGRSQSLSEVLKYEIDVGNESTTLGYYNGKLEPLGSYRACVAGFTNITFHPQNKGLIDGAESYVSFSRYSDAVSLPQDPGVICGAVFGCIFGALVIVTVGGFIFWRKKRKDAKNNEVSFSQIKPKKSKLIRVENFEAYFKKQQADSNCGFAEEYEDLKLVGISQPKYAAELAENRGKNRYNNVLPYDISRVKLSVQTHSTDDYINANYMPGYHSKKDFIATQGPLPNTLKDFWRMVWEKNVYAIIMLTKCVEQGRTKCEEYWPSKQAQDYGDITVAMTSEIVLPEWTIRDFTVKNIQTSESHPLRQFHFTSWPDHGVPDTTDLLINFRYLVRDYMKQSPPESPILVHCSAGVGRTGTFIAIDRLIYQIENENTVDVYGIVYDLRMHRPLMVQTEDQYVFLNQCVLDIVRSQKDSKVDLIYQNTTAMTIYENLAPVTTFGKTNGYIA
UniProt Q14671: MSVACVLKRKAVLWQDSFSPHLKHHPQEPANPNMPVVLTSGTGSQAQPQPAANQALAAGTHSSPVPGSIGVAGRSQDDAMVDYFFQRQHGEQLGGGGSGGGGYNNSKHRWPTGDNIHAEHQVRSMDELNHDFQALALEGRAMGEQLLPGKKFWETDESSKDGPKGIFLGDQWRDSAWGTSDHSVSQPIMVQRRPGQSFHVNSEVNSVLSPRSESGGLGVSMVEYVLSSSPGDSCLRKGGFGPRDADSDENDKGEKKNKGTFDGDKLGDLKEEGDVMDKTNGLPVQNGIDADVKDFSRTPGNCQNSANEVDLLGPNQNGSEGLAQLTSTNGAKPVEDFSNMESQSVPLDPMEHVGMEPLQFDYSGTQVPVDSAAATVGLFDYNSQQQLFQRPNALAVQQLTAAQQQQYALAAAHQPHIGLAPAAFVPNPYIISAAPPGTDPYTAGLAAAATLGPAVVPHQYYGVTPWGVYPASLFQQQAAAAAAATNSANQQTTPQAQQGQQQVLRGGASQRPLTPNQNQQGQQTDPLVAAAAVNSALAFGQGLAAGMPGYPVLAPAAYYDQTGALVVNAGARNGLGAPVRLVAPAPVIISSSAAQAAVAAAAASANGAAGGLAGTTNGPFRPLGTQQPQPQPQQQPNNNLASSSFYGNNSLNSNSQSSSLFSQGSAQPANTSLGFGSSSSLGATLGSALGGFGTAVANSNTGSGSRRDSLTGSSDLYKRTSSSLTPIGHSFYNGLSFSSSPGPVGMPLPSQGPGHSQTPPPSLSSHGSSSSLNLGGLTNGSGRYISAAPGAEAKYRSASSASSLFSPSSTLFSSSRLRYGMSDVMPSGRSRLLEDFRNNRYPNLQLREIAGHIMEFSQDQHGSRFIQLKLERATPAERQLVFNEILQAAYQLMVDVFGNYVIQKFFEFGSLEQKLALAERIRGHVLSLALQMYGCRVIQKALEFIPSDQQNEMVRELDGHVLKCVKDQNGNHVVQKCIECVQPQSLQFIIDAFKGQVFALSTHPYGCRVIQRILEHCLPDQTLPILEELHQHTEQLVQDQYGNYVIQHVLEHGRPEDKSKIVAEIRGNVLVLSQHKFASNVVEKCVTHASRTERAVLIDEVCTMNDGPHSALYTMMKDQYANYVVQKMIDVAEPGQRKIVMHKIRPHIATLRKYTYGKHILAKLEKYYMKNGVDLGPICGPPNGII
UniProt Q969U7: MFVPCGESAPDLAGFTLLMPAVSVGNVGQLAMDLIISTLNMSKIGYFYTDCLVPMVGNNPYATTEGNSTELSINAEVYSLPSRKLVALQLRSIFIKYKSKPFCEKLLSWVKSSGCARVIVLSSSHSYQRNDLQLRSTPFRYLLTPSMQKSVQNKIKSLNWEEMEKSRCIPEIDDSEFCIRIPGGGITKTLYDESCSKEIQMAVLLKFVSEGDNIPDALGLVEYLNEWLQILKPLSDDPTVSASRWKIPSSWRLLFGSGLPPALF
UniProt A2A3K4: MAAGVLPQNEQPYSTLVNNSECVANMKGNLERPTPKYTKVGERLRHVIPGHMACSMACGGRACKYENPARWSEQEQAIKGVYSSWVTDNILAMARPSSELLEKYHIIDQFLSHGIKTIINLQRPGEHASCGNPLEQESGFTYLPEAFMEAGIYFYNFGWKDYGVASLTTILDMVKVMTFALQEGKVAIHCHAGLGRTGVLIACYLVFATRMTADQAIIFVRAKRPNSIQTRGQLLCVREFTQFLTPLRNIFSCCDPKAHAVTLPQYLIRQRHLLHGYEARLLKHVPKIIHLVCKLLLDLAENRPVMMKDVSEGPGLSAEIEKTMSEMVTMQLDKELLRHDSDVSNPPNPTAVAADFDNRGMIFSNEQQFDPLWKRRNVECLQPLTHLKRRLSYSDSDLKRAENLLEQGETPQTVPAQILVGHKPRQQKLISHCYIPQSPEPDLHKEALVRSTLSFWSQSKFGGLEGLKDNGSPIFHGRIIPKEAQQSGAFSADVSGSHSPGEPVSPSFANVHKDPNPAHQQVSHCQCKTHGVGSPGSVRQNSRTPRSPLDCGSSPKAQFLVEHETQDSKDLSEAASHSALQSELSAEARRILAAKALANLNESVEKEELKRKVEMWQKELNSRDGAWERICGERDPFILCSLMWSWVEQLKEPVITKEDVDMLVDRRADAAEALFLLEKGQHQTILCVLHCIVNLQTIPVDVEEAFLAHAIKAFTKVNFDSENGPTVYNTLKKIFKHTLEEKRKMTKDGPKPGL
UniProt Q9UL46, whole entry, looked up: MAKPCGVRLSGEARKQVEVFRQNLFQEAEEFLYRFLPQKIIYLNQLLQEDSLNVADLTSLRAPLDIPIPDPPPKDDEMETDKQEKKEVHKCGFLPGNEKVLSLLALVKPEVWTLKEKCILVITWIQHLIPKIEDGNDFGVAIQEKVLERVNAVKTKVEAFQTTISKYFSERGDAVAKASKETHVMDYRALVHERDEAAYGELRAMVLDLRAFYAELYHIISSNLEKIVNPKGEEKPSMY
UniProt Q9BZE2: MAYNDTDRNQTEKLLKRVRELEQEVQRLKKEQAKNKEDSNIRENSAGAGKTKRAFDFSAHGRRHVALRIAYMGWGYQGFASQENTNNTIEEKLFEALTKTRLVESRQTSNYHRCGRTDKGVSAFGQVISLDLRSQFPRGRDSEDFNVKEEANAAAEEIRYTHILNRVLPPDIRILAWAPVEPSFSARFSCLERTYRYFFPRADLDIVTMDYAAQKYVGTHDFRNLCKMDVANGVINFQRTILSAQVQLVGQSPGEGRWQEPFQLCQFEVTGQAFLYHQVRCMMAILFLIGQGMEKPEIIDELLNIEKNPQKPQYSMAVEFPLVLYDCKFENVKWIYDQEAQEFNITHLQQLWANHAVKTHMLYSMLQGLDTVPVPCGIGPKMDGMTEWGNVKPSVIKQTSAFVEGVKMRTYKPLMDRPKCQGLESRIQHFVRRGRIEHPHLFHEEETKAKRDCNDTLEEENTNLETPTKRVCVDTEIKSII
UniProt Q8TBF2: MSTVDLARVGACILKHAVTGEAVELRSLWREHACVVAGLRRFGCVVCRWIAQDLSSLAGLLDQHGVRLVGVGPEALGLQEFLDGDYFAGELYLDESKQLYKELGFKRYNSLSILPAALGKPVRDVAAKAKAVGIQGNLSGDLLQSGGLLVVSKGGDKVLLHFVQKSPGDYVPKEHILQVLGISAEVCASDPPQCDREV
UniProt Q99952: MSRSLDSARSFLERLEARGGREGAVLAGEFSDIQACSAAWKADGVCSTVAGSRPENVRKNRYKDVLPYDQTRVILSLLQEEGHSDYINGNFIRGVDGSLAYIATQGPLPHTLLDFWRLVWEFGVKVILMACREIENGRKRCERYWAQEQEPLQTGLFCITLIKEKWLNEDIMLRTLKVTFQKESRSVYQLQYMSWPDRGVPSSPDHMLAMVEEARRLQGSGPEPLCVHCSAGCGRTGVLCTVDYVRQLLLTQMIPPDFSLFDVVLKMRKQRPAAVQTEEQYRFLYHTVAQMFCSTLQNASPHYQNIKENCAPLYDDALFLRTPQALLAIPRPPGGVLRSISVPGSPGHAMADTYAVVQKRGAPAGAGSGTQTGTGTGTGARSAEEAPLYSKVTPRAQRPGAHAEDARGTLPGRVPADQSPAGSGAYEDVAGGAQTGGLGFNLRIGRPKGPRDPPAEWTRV

Key:
Assay in all cases: log2 fold change, soluble protein after heating vs DMSO (PISA); higher = thermal stabilisation; K562 lysate, 10 uM; active = over 0.2 and 3.5 SD of the protein, either way, in both replicates (recomputed)
erlotinib = compound: C#Cc1cccc(Nc2ncnc3cc(OCCOC)c(OCCOC)cc23)c1 [erlotinib]
Summary of the method: (§1)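 Pellets of K562 cells were dounce-homogenised in PBS pH 7.4 with 1 mM MgCl2, and the crude extract was held at 1 mg/mL protein for a 30 min treatment with 10 μM compound. Aliquots were heated for 3 min over 48°C-58°C and pooled before NP-40 was added to 0.5% at 4°C. The supernatant from 21,000xg for 90 min was quantified by TMTpro 16plex LC-MS/MS with channel sums equalised. Values are reported from duplicates as log-two fold change in thermal stability relative to solvent controls.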

[1] = compound: C/C(=N\NC(=O)C1=CC(=CC=C1)S(=O)(=O)N2CCOCC2)/C3=C(C=CC(=C3)Cl)O
Summary of the method: as §1

[2] = compound: C1=CC(=CC=C1C2=NC3=C(N2)C=C(C=C3)C(=O)N)OC4=CC=C(C=C4)Cl
Summary of the method: as §1

[3] = compound: C1=CC2=C(C=CC(=C2)/C=C\3/C(=O)NC(=NCC4=CC=CS4)S3)N=C1
Summary of the method: as §1

[4] = compound: C1=CC2=NC=CN=C2C=C1/C=C/3\C(=O)NC(=O)S3
Summary of the method: as §1

[5] = compound: C1=CC=C(C=C1)C2=NC(=C(N2)C3=CC=NC=C3)C4=CC(=C(C=C4)Cl)O
Summary of the method: as §1

[6] = compound: C1=CC=C2C(=C1)C3=NNC4=CC=CC(=C43)C2=O
Summary of the method: as §1

[7] = compound: C1CCN(C1)C(=O)NC2=CC=CC(=C2)NC3=NC=C(C(=N3)NCCC4=CN=CN4)Br
Summary of the method: as §1

[8] = compound: C1CN(CCC1(CC2=CC=C(C=C2)Cl)N)C3=NC=NC4=C3C=CN4
Summary of the method: as §1

IRAK-1-4 Inhibitor I = compound: C1COCCN1CCN2C3=CC=CC=C3N=C2NC(=O)C4=CC(=CC=C4)[N+](=O)[O-] [IRAK-1-4 Inhibitor I]
Summary of the method: as §1

Measured: log2 fold change

PUS7L (UniProt Q9H0K6)
inactive: erlotinib 0.008 | [1] 0.017 | [2] 0.006 | [3] 0.006 | [4] -0.034 | [5] 0.007 | [6] -0.013 | [7] 0.011 | [8] -0.008 | IRAK-1-4 Inhibitor I 0.026

PRPH isoform 2 (UniProt P41219)
inactive: erlotinib -0.007 | [1] 0.042 | [2] -0.025 | [3] -0.032 | [4] 0.066 | [5] -0.001 | [6] -0.114 | [7] 0.072 | [8] -0.005 | IRAK-1-4 Inhibitor I -0.011

PSMB3 (UniProt P49720)
inactive: erlotinib 0.035 | [1] 0.004 | [2] -0.001 | [3] -0.022 | [4] 0.01 | [5] 0.015 | [6] 0.019 | [7] 0.048 | [8] -0.025 | IRAK-1-4 Inhibitor I 0.032

PTPN12 (UniProt Q05209)
inactive: erlotinib 0.023 | [1] -0.006 | [2] 0.015 | [3] 0.02 | [4] -0.004 | [5] -0.005 | [6] -0.011 | [7] -0.014 | [8] 0.017 | IRAK-1-4 Inhibitor I 0.011

PTDSS2 (UniProt Q9BVG9)
inactive: erlotinib -0.002 | [1] -0.003 | [2] -0.104 | [3] -0.021 | [4] 0.095 | [5] -0.014 | [6] -0.08 | [7] -0.056 | [8] 0.02 | IRAK-1-4 Inhibitor I 0.024

PSIP1 (UniProt O75475)
inactive: erlotinib -0.016 | [1] -0.067 | [2] 0.021 | [3] 0.011 | [4] -0.014 | [5] 0.022 | [6] -0.018 | [7] -0.016 | [8] 0.001 | IRAK-1-4 Inhibitor I -0.001

PSMD10 (UniProt O75832)
inactive: erlotinib 0.024 | [1] 0.038 | [2] -0.028 | [3] -0.002 | [4] 0.001 | [5] -0.018 | [6] 0.014 | [7] 0.039 | [8] 0.06 | IRAK-1-4 Inhibitor I -0.012

PUDP isoform 4 (UniProt Q08623)
inactive: erlotinib 0 | [1] -0.024 | [2] 0.02 | [3] -0.046 | [4] -0.031 | [5] 0.004 | [6] 0.047 | [7] 0.009 | [8] 0.054 | IRAK-1-4 Inhibitor I 0.005

PTP4A1 (UniProt Q93096)
inactive: erlotinib -0.005 | [1] 0.01 | [2] 0.014 | [3] -0.001 | [4] -0.013 | [5] -0.022 | [6] -0.086 | [7] 0.05 | [8] -0.066 | IRAK-1-4 Inhibitor I -0.014

PSMB6 (UniProt P28072)
inactive: erlotinib -0.017 | [1] -0.012 | [2] 0.033 | [3] -0.028 | [4] -0.025 | [5] 0.006 | [6] -0.018 | [7] -0.002 | [8] 0.014 | IRAK-1-4 Inhibitor I 0.008

PTK2 (UniProt Q05397)
inactive: erlotinib -0.018 | [1] -0.009 | [2] 0.045 | [3] -0.031 | [4] -0.045 | [5] -0.02 | [6] 0.271 | [7] 0.32 | [8] -0.045 | IRAK-1-4 Inhibitor I 0.22

PTPRJ (UniProt Q12913)
inactive: erlotinib -0.152 | [1] -0.338 | [2] 0.092 | [3] -0.155 | [4] -0.197 | [5] -0.093 | [6] -0.041 | [7] -0.051 | [8] -0.042 | IRAK-1-4 Inhibitor I -0.043

2 records picked at random from the list so far, as already listed:
PTK2 (UniProt Q05397)
inactive: erlotinib -0.018 | [1] -0.009 | [2] 0.045 | [3] -0.031 | [4] -0.045 | [5] -0.02 | [6] 0.271 | [7] 0.32 | [8] -0.045 | IRAK-1-4 Inhibitor I 0.22

PTPRJ (UniProt Q12913)
inactive: erlotinib -0.152 | [1] -0.338 | [2] 0.092 | [3] -0.155 | [4] -0.197 | [5] -0.093 | [6] -0.041 | [7] -0.051 | [8] -0.042 | IRAK-1-4 Inhibitor I -0.043

Later entries

PSMC2 (UniProt P35998)
inactive: erlotinib -0.007 | [1] -0.008 | [2] -0.028 | [3] 0.006 | [4] -0.014 | [5] 0.001 | [6] -0.022 | [7] 0.019 | [8] -0.006 | IRAK-1-4 Inhibitor I 0.007

PSEN1 (UniProt P49768)
inactive: erlotinib 0.024 | [1] 0.001 | [2] -0.109 | [3] 0.053 | [4] 0.043 | [5] -0.06 | [6] 0.003 | [7] -0.026 | [8] 0.122 | IRAK-1-4 Inhibitor I -0.081

PSMA6 (UniProt P60900)
inactive: erlotinib 0.013 | [1] 0.039 | [2] 0.008 | [3] -0.016 | [4] 0.014 | [5] -0.018 | [6] 0.016 | [7] 0.011 | [8] -0.017 | IRAK-1-4 Inhibitor I 0.01

PTTG1 (UniProt O95997)
inactive: erlotinib -0.036 | [1] -0.12 | [2] -0.162 | [3] -0.006 | [4] -0.113 | [5] 0.071 | [6] -0.022 | [7] 0.005 | [8] 0.044 | IRAK-1-4 Inhibitor I -0.02

PUM1 isoform 3 (UniProt Q14671)
inactive: erlotinib -0.025 | [1] 0.051 | [2] 0.06 | [3] -0.028 | [4] 0.02 | [5] -0.052 | [6] -0.033 | [7] 0.01 | [8] 0.013 | IRAK-1-4 Inhibitor I 0.011

PSMD8 (UniProt P48556)
inactive: erlotinib -0.022 | [1] -0.019 | [2] -0.033 | [3] 0.074 | [4] -0.019 | [5] -0.002 | [6] -0.016 | [7] 0 | [8] 0.032 | IRAK-1-4 Inhibitor I 0.028

PTRH1 (UniProt Q86Y79)
inactive: erlotinib -0.133 | [1] 0.13 | [2] -0.317 | [3] 0.225 | [5] -0.025 | [6] 0.045 | [7] 0.345 | [8] -0.141 | IRAK-1-4 Inhibitor I 0.054

PSMG2 (UniProt Q969U7)
inactive: erlotinib -0.053 | [1] -0.008 | [2] -0.025 | [3] -0.007 | [4] -0.056 | [5] 0.014 | [6] 0.028 | [7] 0.009 | [8] -0.014 | IRAK-1-4 Inhibitor I 0.018

PRUNE2 isoform 3 (UniProt Q8WUY3)
inactive: erlotinib 0.037 | [1] -0.155 | [2] 0.105 | [3] 0.026 | [4] 0.059 | [5] 0 | [6] -0.08 | IRAK-1-4 Inhibitor I 0.003

PSMD2 (UniProt Q13200)
inactive: erlotinib 0.001 | [1] 0.007 | [2] 0.004 | [3] -0.01 | [4] -0.029 | [5] 0.007 | [6] -0.016 | [7] 0.003 | [8] 0.011 | IRAK-1-4 Inhibitor I -0.001

PTPDC1 isoform 2 (UniProt A2A3K4)
inactive: erlotinib -0.067 | [1] 0.058 | [2] -0.017 | [3] -0.166 | [4] 0.137 | [6] 0.025

PUF60 isoform 2 (UniProt Q9UHX1)
inactive: erlotinib 0.102 | [1] -0.094 | [2] 0.083 | [3] -0.019 | [4] -0.064 | [5] -0.088 | [6] -0.005 | [7] -0.045 | [8] 0.033 | IRAK-1-4 Inhibitor I -0.011

PSME2 (UniProt Q9UL46)
inactive: erlotinib -0.024 | [1] -0.022 | [2] -0.001 | [3] 0.007 | [4] 0.014 | [5] -0.012 | [6] -0.036 | [7] -0.01 | [8] 0.029 | IRAK-1-4 Inhibitor I 0.034

PUS3 (UniProt Q9BZE2)
inactive: erlotinib -0.014 | [1] 0.043 | [2] -0.028 | [3] -0.048 | [4] 0.048 | [5] -0.006 | [6] -0.064 | [7] -0.028 | [8] 0.097 | IRAK-1-4 Inhibitor I -0.058

PWP2 (UniProt Q15269)
inactive: erlotinib 0.051 | [1] -0.076 | [2] -0.036 | [3] 0.02 | [4] 0.015 | [5] -0.012 | [6] -0.013 | [7] 0.018 | [8] 0.04 | IRAK-1-4 Inhibitor I -0.027

PRXL2B isoform 3 (UniProt Q8TBF2)
inactive: erlotinib 0 | [1] -0.157 | [2] -0.027 | [3] 0.022 | [4] -0.034 | [5] -0.044 | [6] -0.096 | [7] 0.019 | [8] -0.04 | IRAK-1-4 Inhibitor I 0.007

PTPN18 (UniProt Q99952)
inactive: erlotinib 0.013 | [1] 0.125 | [2] -0.007 | [3] 0.086 | [4] -0.15 | [5] 0.048 | [6] -0.096 | [7] -0.076 | [8] 0.041 | IRAK-1-4 Inhibitor I -0.025

PSME3 isoform 2 (UniProt P61289)
inactive: erlotinib -0.036 | [1] 0.003 | [2] 0.014 | [3] -0.014 | [4] 0.006 | [5] -0.004 | [6] 0.022 | [7] 0.032 | [8] -0.006 | IRAK-1-4 Inhibitor I -0.017
